Assay results as given in PubChem BioAssay AID1671190 (National Center for Advancing Translational Sciences (NCATS), 2021).
Several values for one entry are separate records, joined by “and”; a condition that tells them apart may be missing. Equal entries are not always repeated. Screen size: about 580,000 compounds; about 6,100 (1.1%) were called active. Inconclusive means that the source gave no clear call. Such entries were picked first, then a sample of the others. The call rests on the fitted dose curve; in most records, active means well fitted inhibition curve with a large enough effect; inconclusive means small, poorly fitted or top-dose-only effect, or another doubt; inactive means no such curve, though single readings can be large or run the other way. Potencies of inconclusive entries are doubtful fits and often do not repeat.

Chains of the proteins cited; added tags and fusions are not shown. Lines headed by an entry give the natural chain unless they say otherwise; changes in a name come on top.
UniProt P18054: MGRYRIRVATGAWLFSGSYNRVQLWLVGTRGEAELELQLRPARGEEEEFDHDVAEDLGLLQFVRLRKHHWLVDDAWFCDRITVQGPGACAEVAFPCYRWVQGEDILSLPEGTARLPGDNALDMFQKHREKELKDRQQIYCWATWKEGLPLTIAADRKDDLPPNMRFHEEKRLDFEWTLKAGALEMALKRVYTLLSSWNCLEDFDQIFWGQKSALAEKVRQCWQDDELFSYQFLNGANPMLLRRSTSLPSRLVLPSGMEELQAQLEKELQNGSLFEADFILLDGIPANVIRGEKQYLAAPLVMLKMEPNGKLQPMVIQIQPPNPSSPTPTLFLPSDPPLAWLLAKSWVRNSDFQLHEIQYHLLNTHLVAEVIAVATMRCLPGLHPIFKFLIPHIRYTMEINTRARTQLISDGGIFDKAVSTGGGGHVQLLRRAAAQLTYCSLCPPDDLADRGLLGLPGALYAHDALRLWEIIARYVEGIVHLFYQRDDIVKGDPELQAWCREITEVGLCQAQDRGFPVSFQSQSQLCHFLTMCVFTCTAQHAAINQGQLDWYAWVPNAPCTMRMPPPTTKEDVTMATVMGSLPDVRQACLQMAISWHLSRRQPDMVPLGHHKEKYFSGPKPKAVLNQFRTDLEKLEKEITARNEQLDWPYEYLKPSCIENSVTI

Target: Polyunsaturated fatty acid lipoxygenase ALOX12 (Homo sapiens) (UniProt P18054)
Assay: Primary qHTS assay for inhibitors of human arachidonate 12S-lipoxygenase (ALOX12): Round 2
Conditions: purified 12hLO, xylenol orange hydroperoxide absorbance; series mostly up to 108 µM
Method in brief: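 Purified human 12hLO at 150 nM in 25 mM Hepes, 0.01% Triton X-100, pH 7.0, preincubated 15 min at room temperature with compound. Reaction started with 40 uM arachidonic acid, 30 min at room temperature. Hydroperoxide measured by Fe-xylenol orange, 573/405 nm absorbance ratio.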
Potency means the concentration at half of the fitted maximal effect.

SMILES	Potency
CC(C)C(=O)N1CCN(c2ccccc2NC(=O)C2(c3ccccc3)CCCC2)CC1	inactive
NC(=NCc1ccccc1)C(N=Nc1ccccc1)C(=O)NCc1ccccc1 (configuration not stated)	inconclusive: 126 µM [inhibitor, single point]
N#Cc1ccc(-c2ccccc2)nc1SCC(=O)Nc1cccc(Cl)c1	inactive
CC(=O)c1ccc(-n2ccnc2)cc1	inconclusive: 112 µM [inhibitor, partial curve, poor fit]
NC(=S)C(c1ccccc1)c1ncc(C(F)(F)F)cc1Cl (configuration not stated)	inconclusive: 17.8 µM [inhibitor, partial curve, poor fit]
CC(C)c1ccc(Nc2c([N+](=O)[O-])c(=O)n(C)c3ccccc23)cc1	inactive
Cc1[nH]c2ccccc2c1C(c1ccccn1)c1c(C)[nH]c2ccccc12	inconclusive: 2 µM [inhibitor, full curve, poor fit]
Cc1ccc(Cl)cc1N1CCN(C(CC(C)C)c2nnnn2CC2CCCO2)CC1 (configuration not stated)	inactive
Cc1ccc2nc(-c3ccccc3)cn2c1	inconclusive: 79.4 µM [inhibitor, single point]
Cc1cc(N/N=C/c2ccc3c(c2)OCO3)nc2ccccc12	inconclusive: 44.7 µM [inhibitor, partial curve, poor fit]
O=C(O)Cn1c(=O)c2c3c(sc2n(Cc2ccc(Cl)cc2Cl)c1=O)CCCC3	inconclusive: 44.7 µM [inhibitor, partial curve, poor fit]
COc1cc(Nc2nnc(C)s2)c(Cl)cc1Cl	inactive
Cc1[nH]c(C)c(C=O)c1C=O	inactive
O=C1OC(Nc2ccc(Cl)cn2)c2ccccc21 (configuration not stated)	inactive
COC(=O)C1C(O)=C(C=Nc2cccc3ccccc23)C(=O)CC1(C)C (configuration not stated)	inconclusive: 79.4 µM [inhibitor, partial curve, poor fit]
CCOc1ccc(Nc2nc(-c3c(C)nc4ccccn34)cs2)cc1	inconclusive: 2.17 µM [inhibitor, single point]
N#Cc1ccccc1OCC(=O)Nc1ccc2c(c1)OCO2	inactive
CC(C)(C)OC(=O)NCCCC(=O)NCc1c[nH]c2ncccc12	inactive
Cc1ccc(Cn2cc(CN3CC(N4CCN(Cc5cccc(C)c5)CC4)CS3(=O)=O)nn2)cc1 (configuration not stated)	inconclusive: 20 µM [inhibitor, partial curve]
Cc1ccc(S(=O)(=O)C(C#N)c2nc3ccccc3nc2N2CCCC2)cc1 (configuration not stated)	inconclusive: 35.5 µM [inhibitor, partial curve, poor fit]
Cc1ccc(C)c(CN2C(=O)c3ccccc3S(=O)(=O)c3ccc(C(=O)N4CCCCC4)cc32)c1	inconclusive: 50.1 µM [inhibitor, full curve, poor fit]
Cc1oc2c(c1C(=O)N1CCCCCC1)CN(Cc1cccc(F)c1)CC2	inconclusive: 20 µM [inhibitor, full curve, poor fit]
CCOCCCNC(=O)c1ccc(CN2CCc3ccccc3C2)cc1	inconclusive: 79.4 µM [inhibitor, partial curve, poor fit]

Of the compounds above, these contain a cyano group:
SMILES	Potency
N#Cc1ccc(-c2ccccc2)nc1SCC(=O)Nc1cccc(Cl)c1	inactive
N#Cc1ccccc1OCC(=O)Nc1ccc2c(c1)OCO2	inactive
Cc1ccc(S(=O)(=O)C(C#N)c2nc3ccccc3nc2N2CCCC2)cc1 (configuration not stated)	inconclusive: 35.5 µM [inhibitor, partial curve, poor fit]

The listing continues.

SMILES	Potency
Cc1ccc(/C=C2/SC(=S)N(CCC(=O)NCCCN3CCOCC3)C2=O)cc1	inconclusive: 44.7 µM [inhibitor, single point]
CC(=O)c1ccc(NC(=O)[C@@]2(CC(=O)O)CC(c3ccc(F)cc3)=NO2)cc1	inconclusive: 79.4 µM [inhibitor, single point]
COc1cccc(N2C(=O)CC(Sc3nc(C)cc(C)n3)C2=O)c1 (configuration not stated)	inconclusive: 35.5 µM [inhibitor, partial curve, poor fit]
COc1cc(C=C2C(=O)C=CC2=O)ccc1O	inconclusive: 1.58 µM [inhibitor, full curve, poor fit]
COc1ccccc1NC(=O)c1c(NC(=O)CCC(=O)O)sc2c1CCCCC2	inactive
S=C(NCCc1cccs1)Nc1ccc(Cl)cc1Cl	inconclusive: 100 µM [inhibitor, single point]
C/C(=C/c1oc2ccc(O)cc2c1[N+](=O)[O-])N(C)C	inactive
C[C@H]1CN([C@@H](C)CO)C(=O)c2cccc(NC(=O)Nc3ccc(C(F)(F)F)cc3)c2O[C@@H]1CN(C)C(=O)Nc1ccc(F)cc1	inconclusive: 141 µM [inhibitor, single point]
Cc1cc2cc(CNC(=O)Nc3ccccc3)ccc2n1C	inactive
COc1ccc(NS(=O)(=O)c2ccc(N3CCCCC3)c(NC(=O)C(C)NC(N)=O)c2)cc1 (configuration not stated)	inconclusive: 50.1 µM [inhibitor, partial curve, poor fit]
COc1ccc(C(=O)N2CCC(N3CCNC3=O)CC2)cc1	inconclusive: 70.8 µM [inhibitor, partial curve, poor fit]
CCOC(=O)C1=C(CSc2nncn2C)NC(=O)NC1c1cc(OCC)ccc1OCC (configuration not stated)	inconclusive: 7.94 µM [inhibitor, full curve, poor fit]
COc1cc(C(=O)NCC2(c3ccccc3)CCC2)cc(OC)c1OCC(N)=O	inconclusive: 158 µM [inhibitor, partial curve, poor fit]
COc1cc2c(=O)n(CCc3ccccc3)c(=O)n(CC(=O)Nc3ccccc3)c2cc1OC	inconclusive: 79.4 µM [inhibitor, partial curve, poor fit]
COc1ccc(/C=C2/C(=O)ON=C2c2ccccc2)cc1OC	inconclusive: 6.31 µM [inhibitor, partial curve, poor fit]
COc1cc(C2CC(=O)Oc3c2c(=O)n(C)c2ccccc32)cc(OC)c1OC (configuration not stated)	inactive
COc1cc(OC)c(/C=C2\C(=O)Nc3ccccc32)c(OC)c1	inactive
CC1CCN(C(=O)c2ccc3c(c2)C(O)CCCCCN3C)CC1 (configuration not stated)	inactive
N#CC1(c2ccccc2)CCC(=O)N1c1ccccc1 (configuration not stated)	inconclusive: 112 µM [inhibitor, single point]
COc1ccc(S(=O)(=O)Nc2cccc(-c3ccc(N4CCCCC4)nn3)c2)c(OC)c1	active: 11.2 µM
CC(=O)c1ccc(/C=C/c2nc3ccccc3n2C)o1	inactive
Cc1ccc(C(=O)O)cc1N1C(=O)c2cccc3c([N+](=O)[O-])ccc(c23)C1=O	active: 5.01 µM
CC1CCN(C(=S)NC(=O)c2ccco2)CC1	inactive

SMILES	Potency
COc1ccc(OC)c(NC(=O)c2cccn2-c2nnc(N3CCCCC3)s2)c1	inactive
Fc1ccc(C2CCNCC2COc2ccc3c(c2)OCO3)cc1 (configuration not stated)	inconclusive: 112 µM [inhibitor, single point]
COc1ccc(C(=O)/C=C/c2ccc(OC)c(O)c2)c(F)c1	inconclusive: 39.8 µM [inhibitor, partial curve, poor fit]
COc1ccc(/C=N/Nc2nc3ccccc3[nH]2)c(OC)c1OC	inactive
COc1cc(NC(=O)CSc2ncc(S(=O)(=O)c3ccc(Br)cc3)c(=O)[nH]2)cc(OC)c1	inconclusive: 50.1 µM [inhibitor, partial curve]
O=C(CSc1nc2ccccc2o1)OCC(=O)c1ccc(Br)cc1	inconclusive: 11.2 µM [inhibitor, partial curve, poor fit]
COc1cc(C)c2c(c1C=O)Oc1c(c(C)c(O)c3c1C(O)OC3=O)OC2=O (configuration not stated)	inconclusive: 44.7 µM [inhibitor, partial curve, poor fit] and inconclusive: 89.1 µM [inhibitor, partial curve, poor fit]
CCC1(C)CC(CC(=O)O)(c2ccccc2OC)CCO1 (configuration not stated)	inactive
Cc1oc2cc(OCC(=O)N(C)CCO)ccc2c(=O)c1Oc1ccccc1	inconclusive: 0.251 µM [inhibitor, full curve, poor fit]
CC1(COc2ccc(C[C@H]3SC(=O)NC3=O)cc2)CCCCC1	inconclusive: 28.2 µM [inhibitor, single point]
C/C(=N\Nc1nc2ccccc2nc1C)c1ccccc1O	inactive
O=c1c(=Nc2ccccc2O)c(=O)c2ccccc12	inconclusive: 44.7 µM [inhibitor, partial curve, poor fit]
COCCCNC(=O)c1oc2ccc(S(=O)(=O)N(C)C3CCCCC3)cc2c1C	inactive
Cc1ccccc1C(=O)NC(=S)Nc1ccc(S(=O)(=O)N(C)c2ccccc2)cc1	inconclusive: 25.1 µM [inhibitor, partial curve, poor fit]
COC(=O)Cn1cc(/C=N/NC(=O)c2ccc(C#N)cc2F)c2ccccc21	inactive
CCOc1ccc(CN2CCN(Cc3c[nH]c4ccccc34)CC2)cc1	inconclusive: 0.794 µM [inhibitor, full curve]
CC(=O)Nc1ccc(-c2cc(N)n(-c3ccccc3)n2)cc1	inactive
O=C(CSCC(=O)N1CCCCC1)Nc1nc(-c2ccc(Cl)s2)cs1	inconclusive: 39.8 µM [inhibitor, partial curve]
CCCc1cc(C(N)=O)c(NC(=O)c2cc(C)on2)s1	inconclusive: 44.7 µM [inhibitor, partial curve, poor fit]
CC[C@]1(O)C[C@H]2CN(CCc3c([nH]c4ccccc34)[C@@](C(=O)OC)(c3cc4c(cc3OC)N(C=O)[C@H]3[C@@](O)(C(=O)OC)[C@H](OC(C)=O)[C@]5(CC)C=CCN6CC[C@]43[C@@H]65)C2)C1	inconclusive: 15.3 µM [inhibitor, partial curve, poor fit]
O=C(Cc1c[nH]c2ncc(-c3ccccc3Oc3ccccc3)cc12)N1CCOCC1	inconclusive: 112 µM [inhibitor, partial curve, poor fit]

Part of the list above, in CSV form:
SMILES,Potency
CC(=O)c1ccc(NC(=O)[C@@]2(CC(=O)O)CC(c3ccc(F)cc3)=NO2)cc1,"inconclusive: 79.4 µM [inhibitor, single point]"
Fc1ccc(C2CCNCC2COc2ccc3c(c2)OCO3)cc1 (configuration not stated),"inconclusive: 112 µM [inhibitor, single point]"
